Data published in article PMC3807682.
Results are given in words; binding and its absence hold for the method and conditions named. Binding seen in cells or lysates may run through a third protein. Some results given as binding are weak or reduced against the parent protein; the word gives no strength.

What was measured:
[1] = target: T1, MEF2 (endogenous Drosophila MEF2) (Drosophila (endogenous in whole adult flies)) (UniProt P40791); experiment: co-IP; data not shown: endogenous MEF2 precipitated from whole-fly lysates of flies infected with a mixture of M. luteus and E. coli, TBP detected
T1 sequence: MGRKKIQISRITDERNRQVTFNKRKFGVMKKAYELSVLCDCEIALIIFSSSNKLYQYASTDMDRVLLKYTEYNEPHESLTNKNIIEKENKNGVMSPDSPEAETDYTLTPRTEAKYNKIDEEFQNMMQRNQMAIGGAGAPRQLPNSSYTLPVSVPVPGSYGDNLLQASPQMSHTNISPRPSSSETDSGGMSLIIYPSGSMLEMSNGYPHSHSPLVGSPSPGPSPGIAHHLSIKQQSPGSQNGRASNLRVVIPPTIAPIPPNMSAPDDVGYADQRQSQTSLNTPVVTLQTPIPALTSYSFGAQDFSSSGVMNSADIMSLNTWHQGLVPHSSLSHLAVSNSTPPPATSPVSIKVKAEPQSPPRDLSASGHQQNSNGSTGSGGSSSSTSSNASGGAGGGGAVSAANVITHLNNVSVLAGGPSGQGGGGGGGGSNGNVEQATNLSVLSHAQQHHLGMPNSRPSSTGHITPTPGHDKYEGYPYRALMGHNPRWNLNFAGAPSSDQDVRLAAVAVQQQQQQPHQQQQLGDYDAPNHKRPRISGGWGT

[2] = target: T1, MEF2 (endogenous Drosophila MEF2) (Drosophila (endogenous in whole adult flies)); experiment: co-IP; endogenous MEF2 precipitated with rabbit anti-MEF2 from whole-fly lysates (25 mM HEPES pH 7.6, 100 mM KCl, 1% NP-40), blot for TBP; flies 3 hr after E. cloacae infection; wild type and Dif; Rel double mutants

binding [1]: binds
binding [2]: binds
B1: TATA binding protein (TBP), endogenous Drosophila (protein, UniProt P20227 1-353)
chain: MDQMLSPNFSIPSIGTPLHQMEADQQIVANPVYHPPAVSQPDSLMPAPGSSSVQHQQQQQQSDASGGSGLFGHEPSLPLAHKQMQSYQPSASYQQQQQQQQLQSQAPGGGGSTPQSMMQPQTPQSMMAHMMPMSERSVGGSGAGGGGDALSNIHQTMGPSTPMTPATPGSADPGIVPQLQNIVSTVNLCCKLDLKKIALHARNAEYNPKRFAAVIMRIREPRTTALIFSSGKMVCTGAKSEDDSRLAARKYARIIQKLGFPAKFLDFKIQNMVGSCDVKFPIRLEGLVLTHCNFSSYEPELFPGLIYRMVRPRIVLLIFVSGKVVLTGAKVRQEIYDAFDKIFPILKKFKKQS
